Laboratory results published in PMC4510591.
Results are given in words; binding and its absence hold for the method and conditions named. Binding seen in cells or lysates may run through a third protein. Some results given as binding are weak or reduced against the parent protein; the word gives no strength. For some of these results: Sequences can lack the tags named with a protein.

Chains of the proteins cited; added tags and fusions are not shown.
UniProt Q24117: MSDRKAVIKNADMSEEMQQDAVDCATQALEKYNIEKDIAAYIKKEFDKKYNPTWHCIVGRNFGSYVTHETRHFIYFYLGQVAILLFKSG
UniProt P37276: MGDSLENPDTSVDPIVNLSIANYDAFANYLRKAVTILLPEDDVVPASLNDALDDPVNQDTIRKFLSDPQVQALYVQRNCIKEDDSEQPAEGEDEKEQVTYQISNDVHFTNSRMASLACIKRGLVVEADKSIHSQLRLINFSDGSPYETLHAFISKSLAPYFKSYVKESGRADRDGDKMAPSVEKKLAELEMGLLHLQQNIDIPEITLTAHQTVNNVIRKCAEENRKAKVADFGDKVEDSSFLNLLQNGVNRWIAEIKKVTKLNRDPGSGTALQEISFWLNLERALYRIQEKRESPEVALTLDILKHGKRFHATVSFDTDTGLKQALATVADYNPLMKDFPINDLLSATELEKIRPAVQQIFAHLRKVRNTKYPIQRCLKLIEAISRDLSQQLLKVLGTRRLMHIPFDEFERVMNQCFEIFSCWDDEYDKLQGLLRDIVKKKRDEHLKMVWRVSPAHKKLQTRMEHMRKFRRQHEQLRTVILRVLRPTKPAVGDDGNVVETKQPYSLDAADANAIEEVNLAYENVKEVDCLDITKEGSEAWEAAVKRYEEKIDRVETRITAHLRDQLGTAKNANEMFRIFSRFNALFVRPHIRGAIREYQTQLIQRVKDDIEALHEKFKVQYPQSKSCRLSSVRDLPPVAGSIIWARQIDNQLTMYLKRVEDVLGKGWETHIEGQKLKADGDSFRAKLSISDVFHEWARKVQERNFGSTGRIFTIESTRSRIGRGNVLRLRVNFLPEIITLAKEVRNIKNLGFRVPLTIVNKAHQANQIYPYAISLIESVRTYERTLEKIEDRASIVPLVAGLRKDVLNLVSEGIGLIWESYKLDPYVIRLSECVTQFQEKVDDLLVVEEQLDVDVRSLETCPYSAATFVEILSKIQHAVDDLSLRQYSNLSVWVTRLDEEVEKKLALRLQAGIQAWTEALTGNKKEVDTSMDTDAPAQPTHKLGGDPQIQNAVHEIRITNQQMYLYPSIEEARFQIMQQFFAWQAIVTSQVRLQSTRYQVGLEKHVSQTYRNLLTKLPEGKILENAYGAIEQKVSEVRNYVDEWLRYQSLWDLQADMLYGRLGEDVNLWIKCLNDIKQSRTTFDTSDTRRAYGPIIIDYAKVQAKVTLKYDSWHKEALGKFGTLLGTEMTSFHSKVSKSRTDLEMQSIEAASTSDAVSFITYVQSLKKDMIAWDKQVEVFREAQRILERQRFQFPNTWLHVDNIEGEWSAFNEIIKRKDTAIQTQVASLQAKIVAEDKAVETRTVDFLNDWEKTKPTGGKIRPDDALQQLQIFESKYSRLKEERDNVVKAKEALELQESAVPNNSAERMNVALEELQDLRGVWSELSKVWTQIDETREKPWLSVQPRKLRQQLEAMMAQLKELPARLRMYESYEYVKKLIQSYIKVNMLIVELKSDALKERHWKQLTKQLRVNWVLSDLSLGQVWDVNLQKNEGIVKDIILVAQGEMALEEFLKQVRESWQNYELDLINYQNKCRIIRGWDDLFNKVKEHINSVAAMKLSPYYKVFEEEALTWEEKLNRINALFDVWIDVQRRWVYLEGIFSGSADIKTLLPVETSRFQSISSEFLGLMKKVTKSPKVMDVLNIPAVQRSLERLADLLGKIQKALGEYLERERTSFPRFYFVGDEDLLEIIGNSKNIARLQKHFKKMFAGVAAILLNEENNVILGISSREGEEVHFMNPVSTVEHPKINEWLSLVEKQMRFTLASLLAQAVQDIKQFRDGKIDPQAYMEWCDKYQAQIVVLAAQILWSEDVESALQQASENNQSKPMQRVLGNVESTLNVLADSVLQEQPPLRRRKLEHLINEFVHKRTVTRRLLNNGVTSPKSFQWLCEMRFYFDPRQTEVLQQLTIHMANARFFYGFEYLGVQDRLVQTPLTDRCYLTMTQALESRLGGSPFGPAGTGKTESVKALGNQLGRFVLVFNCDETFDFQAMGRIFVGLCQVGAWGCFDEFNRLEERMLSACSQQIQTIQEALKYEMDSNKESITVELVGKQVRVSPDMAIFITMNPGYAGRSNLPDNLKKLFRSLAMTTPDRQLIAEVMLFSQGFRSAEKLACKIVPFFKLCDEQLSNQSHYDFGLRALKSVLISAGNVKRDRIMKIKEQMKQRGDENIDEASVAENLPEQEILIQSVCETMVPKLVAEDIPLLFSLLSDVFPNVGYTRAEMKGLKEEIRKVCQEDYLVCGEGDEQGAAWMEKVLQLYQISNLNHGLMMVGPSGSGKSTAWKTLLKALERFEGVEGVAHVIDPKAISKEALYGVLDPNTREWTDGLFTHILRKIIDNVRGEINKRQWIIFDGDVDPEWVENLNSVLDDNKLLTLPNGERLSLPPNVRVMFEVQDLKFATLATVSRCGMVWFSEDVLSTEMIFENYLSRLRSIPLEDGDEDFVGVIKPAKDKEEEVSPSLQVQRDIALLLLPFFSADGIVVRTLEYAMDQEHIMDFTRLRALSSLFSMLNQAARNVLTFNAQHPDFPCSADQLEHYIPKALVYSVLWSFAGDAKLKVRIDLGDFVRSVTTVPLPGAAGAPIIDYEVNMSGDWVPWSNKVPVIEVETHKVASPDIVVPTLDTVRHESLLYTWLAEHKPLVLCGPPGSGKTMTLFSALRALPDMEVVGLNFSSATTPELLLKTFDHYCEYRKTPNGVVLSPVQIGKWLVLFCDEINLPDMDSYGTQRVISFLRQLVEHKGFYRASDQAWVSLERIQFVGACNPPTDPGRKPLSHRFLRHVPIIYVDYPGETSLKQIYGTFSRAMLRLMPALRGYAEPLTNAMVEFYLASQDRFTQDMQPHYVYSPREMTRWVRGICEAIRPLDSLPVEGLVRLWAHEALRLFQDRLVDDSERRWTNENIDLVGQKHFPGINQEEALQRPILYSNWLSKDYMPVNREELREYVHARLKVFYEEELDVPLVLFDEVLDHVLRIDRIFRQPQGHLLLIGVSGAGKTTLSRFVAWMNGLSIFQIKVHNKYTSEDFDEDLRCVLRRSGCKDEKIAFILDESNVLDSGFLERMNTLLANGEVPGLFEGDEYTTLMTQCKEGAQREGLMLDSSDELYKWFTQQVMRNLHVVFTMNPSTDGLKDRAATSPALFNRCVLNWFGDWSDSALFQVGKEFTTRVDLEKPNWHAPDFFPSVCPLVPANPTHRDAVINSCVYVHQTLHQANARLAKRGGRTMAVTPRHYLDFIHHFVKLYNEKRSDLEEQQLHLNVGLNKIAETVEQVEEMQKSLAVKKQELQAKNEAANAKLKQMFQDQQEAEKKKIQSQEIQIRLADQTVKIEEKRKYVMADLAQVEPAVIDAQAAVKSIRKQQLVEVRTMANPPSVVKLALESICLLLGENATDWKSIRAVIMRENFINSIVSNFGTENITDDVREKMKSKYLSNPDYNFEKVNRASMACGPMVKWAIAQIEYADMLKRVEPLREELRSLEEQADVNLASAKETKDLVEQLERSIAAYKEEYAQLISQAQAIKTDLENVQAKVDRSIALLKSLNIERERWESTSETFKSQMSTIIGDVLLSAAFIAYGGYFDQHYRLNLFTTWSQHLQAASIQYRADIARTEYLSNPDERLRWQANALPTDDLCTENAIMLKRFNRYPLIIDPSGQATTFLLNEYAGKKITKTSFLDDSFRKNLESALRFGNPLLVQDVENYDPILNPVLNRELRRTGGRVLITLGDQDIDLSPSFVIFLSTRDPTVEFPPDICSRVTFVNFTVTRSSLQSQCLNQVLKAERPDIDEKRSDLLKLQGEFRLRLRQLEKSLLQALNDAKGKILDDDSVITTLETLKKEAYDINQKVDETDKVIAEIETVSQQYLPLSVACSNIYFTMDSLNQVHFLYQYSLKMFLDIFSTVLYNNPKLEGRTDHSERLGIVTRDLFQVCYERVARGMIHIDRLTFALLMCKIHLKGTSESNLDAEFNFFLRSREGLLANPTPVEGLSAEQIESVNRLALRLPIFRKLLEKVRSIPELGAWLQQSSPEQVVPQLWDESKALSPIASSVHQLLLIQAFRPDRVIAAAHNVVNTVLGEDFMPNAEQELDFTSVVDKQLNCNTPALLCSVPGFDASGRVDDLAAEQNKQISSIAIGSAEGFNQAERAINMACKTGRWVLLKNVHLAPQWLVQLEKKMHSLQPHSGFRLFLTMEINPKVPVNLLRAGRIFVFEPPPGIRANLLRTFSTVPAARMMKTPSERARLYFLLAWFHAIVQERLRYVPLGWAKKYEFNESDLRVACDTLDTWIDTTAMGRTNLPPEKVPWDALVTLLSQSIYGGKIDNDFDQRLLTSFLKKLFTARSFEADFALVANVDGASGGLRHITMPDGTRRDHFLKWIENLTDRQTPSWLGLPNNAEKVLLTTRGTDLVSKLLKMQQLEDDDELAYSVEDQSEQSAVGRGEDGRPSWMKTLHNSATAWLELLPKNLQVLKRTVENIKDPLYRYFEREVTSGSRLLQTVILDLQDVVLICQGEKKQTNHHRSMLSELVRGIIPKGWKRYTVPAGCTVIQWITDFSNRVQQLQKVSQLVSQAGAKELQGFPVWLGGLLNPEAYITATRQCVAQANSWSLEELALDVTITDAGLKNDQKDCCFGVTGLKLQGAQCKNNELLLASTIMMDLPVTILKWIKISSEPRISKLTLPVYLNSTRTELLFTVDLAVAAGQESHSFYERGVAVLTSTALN

Tests used:
[1] = molecular target: T1, Spindle-F (Spn-F), overexpressed in S2 cells (Drosophila) (UniProt Q9V9Y9); assay: co-IP; transfected S2 cells lysed in 50 mM Tris-HCl pH 7.5, 150 mM NaCl, 0.5% Triton X-100, 10% glycerol, 1 mM EDTA, 1 mM DTT; anti-HA, anti-GFP or anti-myc beads, 2 h at 4°C
T1 sequence: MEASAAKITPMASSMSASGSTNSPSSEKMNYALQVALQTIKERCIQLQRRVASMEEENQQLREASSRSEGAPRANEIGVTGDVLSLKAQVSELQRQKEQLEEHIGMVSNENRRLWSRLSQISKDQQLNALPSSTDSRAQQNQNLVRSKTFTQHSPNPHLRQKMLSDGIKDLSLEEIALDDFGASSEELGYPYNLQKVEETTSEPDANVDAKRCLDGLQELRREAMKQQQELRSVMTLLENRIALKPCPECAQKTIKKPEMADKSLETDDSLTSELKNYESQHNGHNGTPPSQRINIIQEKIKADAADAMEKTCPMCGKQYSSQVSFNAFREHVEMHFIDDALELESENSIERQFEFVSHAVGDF

[2] = molecular target: T2, Spn-F C1 construct (amino acids 191-273) (Drosophila) (UniProt Q9V9Y9); assay: as above
T2 sequence: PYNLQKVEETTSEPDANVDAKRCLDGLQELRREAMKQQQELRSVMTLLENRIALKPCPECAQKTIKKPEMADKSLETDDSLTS

[3] = molecular target: T3, GST-C1 (GST fusion of the Spn-F C1 region) (Drosophila) (UniProt Q9V9Y9); assay: pull-down; 20 µg purified GST-fusion Spn-F fragment added to ovary lysate, overnight at 4°C; Glutathione-Sepharose 4B 2 h; three rapid washes with lysis buffer; blot for DHC; only the target purified
T3 sequence: T2 sequence

[4] = molecular target: T4, Spindle-F (Spn-F), endogenous in ovary (Drosophila (endogenous in ovary)) (UniProt Q9V9Y9); assay: co-IP; ovary lysates of adult females in lysis buffer; rabbit anti-Spn-F (rabbit anti-GFP as control IgG), 1 h, then Protein G-Sepharose 1 h at 4°C
T4 sequence: T1 sequence

| binding [1] | binding [2] | binding [4] | Substance | binding [3] |
| --- | --- | --- | --- | --- |
| binds | binds |  | Cut up (Ctp)/dynein light chain (LC8), myc-tagged (from UniProt Q24117 1-89) |  |
|  |  | binds | Cytoplasmic dynein heavy chain (DHC; Dhc64C), endogenous in ovary (from UniProt P37276 1-4639) | no binding (tested: 20 µg GST-fusion protein) |
